These results are taken from article PMC7819943, “Rice protein-binding microarrays: a tool to detect cis-acting elements near promoter regions in rice”.

By UniProt entry, the sequences of proteins in these tests, tags left out.
UniProt Q0JBA9, entry or part of it: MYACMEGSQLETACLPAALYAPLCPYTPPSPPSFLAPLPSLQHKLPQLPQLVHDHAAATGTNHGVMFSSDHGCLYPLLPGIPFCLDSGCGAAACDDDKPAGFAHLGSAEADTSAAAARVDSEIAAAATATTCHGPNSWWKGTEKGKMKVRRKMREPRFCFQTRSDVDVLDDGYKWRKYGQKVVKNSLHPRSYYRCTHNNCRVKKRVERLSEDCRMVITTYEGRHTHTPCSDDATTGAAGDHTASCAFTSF

The other results are listed elsewhere or left out.

The assay concerns the target OsWRKY34 (Oryza sativa, UniProt Q0JBA9 1-250). In words: protein-binding microarray (RPBM); PBS, 2% BSA, 51.3 ng/ul salmon testes DNA, 50 uM zinc acetate, 200 nM TF, 25 C, 1 h; high values mean tight binding. As to conditions: protein: recombinant; tags: N-terminal polyhistidine and DsRed monomer fusion (pET32a); label: CyDye5-dUTP incorporated in the synthesized complementary strand; 3' TTTTT single-stranded linker to array surface; dsDNA, one strand shown. A digest of the protocol: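 For the binding signal, per-feature fluorescence intensity was read in arbitrary units on an Axon 4000B scanner. Before scanning, a 2% BSA-blocked custom Agilent array made double-stranded with Cy5-dUTP was washed after 1 h at 25 °C with 200 nM protein and 50 µM zinc acetate. The proteins were Ni–NTA-purified transcription factors with N-terminal polyhistidine and DsRed fusions, expressed in E. coli BL21-CodonPlus.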
Consider “GATCAACGAACACTCGTGGGCCGTAGGCGGAGGCGCAAGTCGGAGTCACCTAGTGCAG”, for which the binding signal is 62600 fluorescence intensity (a.u.).

Regarding “GACATAGATTGCCTTTTTTTACTTTTAGCTCTATTCAGGTCGGAGTCACCTAGTGCAG”, the binding signal was 8110 fluorescence intensity (a.u.).

Consider “GGCTTTTTTTTTTGGTTGCGTGCGGGCGGTATAATTTGACCGGAGTCACCTAGTGCAG”, for which the binding signal was 11900 fluorescence intensity (a.u.).

With “GGCGCTAGCTTTTTTCCGCATCTGATTATTTTCGTTCTTTCGGAGTCACCTAGTGCAG”, the binding signal is 9170 fluorescence intensity (a.u.).

In the case of “TTGGTGTTAGTATAAATGTTGTTCCTTTACATCGGTTCTGCGGAGTCACCTAGTGCAG”, the binding signal is 11300 fluorescence intensity (a.u.).

“ACCGTCTGTCCGGTTTGTCGTTCCAATCCGTTCTTGTTATCGGAGTCACCTAGTGCAG”: the binding signal is 9890 fluorescence intensity (a.u.).

As for “ATTTACTCTCGCCCATTTTGGATTCACATTAGATCTGGCCCGGAGTCACCTAGTGCAG”, the binding signal was 9970 fluorescence intensity (a.u.).

As for “CATTTACTTGAAGAGTCTTCTTTCGTGTATTCTCTTCCATCGGAGTCACCTAGTGCAG”, the binding signal was 10800 fluorescence intensity (a.u.).

For “CCATGGATCCACCTGTCCACGCAGCTGAGCTTAACCACCGCGGAGTCACCTAGTGCAG”, the binding signal is 9800 fluorescence intensity (a.u.).

Turning to “TAGCATGACCTTTCACCCATACATATGAGCTACTTCTCTTCGGAGTCACCTAGTGCAG”, the binding signal is 9280 fluorescence intensity (a.u.).

For “GCCGTTGAGCCGACTCGATTAATTATACTTCCATTCCAATCGGAGTCACCTAGTGCAG”, the binding signal is 8240 fluorescence intensity (a.u.).

With “CCCACCACCCATTCCGATTCCACCGCGCGCGCACGCCATGCGGAGTCACCTAGTGCAG”, the binding signal was 9710 fluorescence intensity (a.u.).

On to “TCCTTTACTTTGCCTAAACAATTCTCAACCATCTGTTTTCCGGAGTCACCTAGTGCAG”, for which the binding signal was 12200 fluorescence intensity (a.u.).

In the case of “AGGGAATTTGATCTGGTCGGGCCTATGATTTGGTTATACTCGGAGTCACCTAGTGCAG”, the binding signal is 8590 fluorescence intensity (a.u.).

“TTTGGATTGGGTCGAGTGGATTAATTTGTCAGGTATTAAACGGAGTCACCTAGTGCAG”: the binding signal was 8860 fluorescence intensity (a.u.).

Take “GTCACATTCATCCAGTACGAGGTTTCTTTTCTAGGAGGGACGGAGTCACCTAGTGCAG”: the binding signal was 8570 fluorescence intensity (a.u.).

Regarding “GTGGTATTTGGATCCAGTGACTTAATTTTAGTCCCTATATCGGAGTCACCTAGTGCAG”, the binding signal was 9000 fluorescence intensity (a.u.).

For the sequence “GATCGCTTCGCGTGGGCTGGGCTCCATGCCGATCTCCGTACGGAGTCACCTAGTGCAG”, the binding signal was 9540 fluorescence intensity (a.u.).

“CATGCCCGCCTTACTTCGCGCGTCTTACTTCCGCGTGTAACGGAGTCACCTAGTGCAG”: the binding signal is 9500 fluorescence intensity (a.u.).

As for “CTCCTTCTATACTTTTACGGTTTTACCCTGTTGTATATGACGGAGTCACCTAGTGCAG”, the binding signal is 9620 fluorescence intensity (a.u.).

For the sequence “CCCTTACTGGACTCCCTCAGGTCTTGCCATCACCCGCCTTCGGAGTCACCTAGTGCAG”, the binding signal was 10800 fluorescence intensity (a.u.).

Regarding “ACACCACACCACCCTATAAAAACGCCCGCGATCCACTTGCCGGAGTCACCTAGTGCAG”, the binding signal was 9890 fluorescence intensity (a.u.).

As to “ACTAGTTGAAGGAGTTGGGGCTATAAATGGGTGGTGCTATCGGAGTCACCTAGTGCAG”, the binding signal is 10900 fluorescence intensity (a.u.).

On to “CACGCCACCTTGATACTCGCGGGCCCACCACTGCCACGCGCGGAGTCACCTAGTGCAG”, for which the binding signal was 10700 fluorescence intensity (a.u.).

On to “TTGATCTCTGTACCCTTCCATATATCTCCACCCTTTTTAACGGAGTCACCTAGTGCAG”, for which the binding signal was 9010 fluorescence intensity (a.u.).

Take “GTGGTCCAATCACCCTTTGACCCTTCGCCTCCGTGGCGCCCGGAGTCACCTAGTGCAG”: the binding signal is 8500 fluorescence intensity (a.u.).

“TCCCGTCTCTACTTTCTCCTCTCCAGCCTCTCGAAAGCTACGGAGTCACCTAGTGCAG”: the binding signal was 8660 fluorescence intensity (a.u.).

On to “TATAGGCCACTTGTGCCTCGGCTCACGTTGACCTGCCTTACGGAGTCACCTAGTGCAG”, for which the binding signal is 8170 fluorescence intensity (a.u.).

Regarding “GCCCACCTAGTCTATTTCCTACTACTAGTAAACTCGTTTTCGGAGTCACCTAGTGCAG”, the binding signal is 9770 fluorescence intensity (a.u.).

“TTTTCTTTCTCTCTTATACTTACTTTTGCTGTCCGCAGAACGGAGTCACCTAGTGCAG”: the binding signal was 10200 fluorescence intensity (a.u.).

“TCGCATCGTTTTTGATTTGTGGCTGACACCATCCTATTCCCGGAGTCACCTAGTGCAG”: the binding signal was 10800 fluorescence intensity (a.u.).

For the sequence “CGTGACAACTGCGTCTTCTAGACCTTTCCAGACTCCGTTGCGGAGTCACCTAGTGCAG”, the binding signal is 8060 fluorescence intensity (a.u.).

With “TTTTTCTCCTTTCCCGTCTCTCGTATCGTCAGTTTCTTGCCGGAGTCACCTAGTGCAG”, the binding signal was 10700 fluorescence intensity (a.u.).

For “ATCGAAAAGCCTCGTTCGTCCTGCCCGTCCACCGTGTTGACGGAGTCACCTAGTGCAG”, the binding signal is 8380 fluorescence intensity (a.u.).

Regarding “ATGTTTGTTTCCTTTAAATTAGCTATACTTTCTGTAATCCCGGAGTCACCTAGTGCAG”, the binding signal is 9260 fluorescence intensity (a.u.).

Take “CCGGTATATTTTACATCGATGAACAGTATTTTTCTAATTTCGGAGTCACCTAGTGCAG”: the binding signal is 10300 fluorescence intensity (a.u.).

Regarding “GTCACCGCAACAACCGCCAACTTTATTACCCACCAACTGACGGAGTCACCTAGTGCAG”, the binding signal is 9210 fluorescence intensity (a.u.).

For the sequence “TTGAGTTCAGTTATTTGGTTATACCTGACTGCTTGGGCATCGGAGTCACCTAGTGCAG”, the binding signal is 8210 fluorescence intensity (a.u.).

For “GTAGGCCCACTAATCTGCTGTTGTTTATTTTCGTTGTCACCGGAGTCACCTAGTGCAG”, the binding signal is 9210 fluorescence intensity (a.u.).

Consider “ACCGCCTCCATCTCGACCTCGAGCCAGCCCCACGCCGGGACGGAGTCACCTAGTGCAG”, for which the binding signal is 8820 fluorescence intensity (a.u.).

For “CCCTGACACTTCCCACACACTGTGCCACTGCCACTCTCCACGGAGTCACCTAGTGCAG”, the binding signal was 8540 fluorescence intensity (a.u.).

In the case of “TTTCATCCCTTAAGATATATCCCTTTGTTTTTTATACCACCGGAGTCACCTAGTGCAG”, the binding signal is 8960 fluorescence intensity (a.u.).
